Assay results from publication PMC4132792, “Engagement of Nucleotide-binding Oligomerization Domain-containing Protein 1 (NOD1) by Receptor-interacting Protein 2 (RIP2) Is Insufficient for Signal Transduction*” (The Journal of Biological Chemistry, 2014).
These are yes or no findings as the source states them, for the method shown. Sequences can lack the tags named with a protein.

Tests used:
[1] = biological target: His6-tagged recombinant NOD1 CARD (residues 15-110), wild type (human) (UniProt Q9Y239); experiment: SEC; Superdex 75 HiLoad 16/60, 25 mM sodium phosphate, 100 mM NaCl, with 2 mM DTT; monomer and dimer; both purified
[2] = biological target: His6-tagged recombinant NOD1 CARD (residues 15-110) C39S (human) (UniProt Q9Y239); experiment: SEC; Superdex 75 HiLoad 16/60, 25 mM sodium phosphate, 100 mM NaCl, no reducing agent; monomer and dimer; both purified
[3] = biological target: His6-tagged recombinant NOD1 CARD (residues 15-110) C39S (human) (UniProt Q9Y239); experiment: SEC; Superdex 75 HiLoad 16/60, 25 mM sodium phosphate, 100 mM NaCl, with 2 mM DTT; monomer and dimer; both purified
[4] = biological target: His6-tagged recombinant NOD1 CARD (residues 15-110) D48K (human) (UniProt Q9Y239); experiment: as above
[5] = biological target: His6-tagged recombinant NOD1 CARD (residues 15-110) E53K (human) (UniProt Q9Y239); experiment: as above
[6] = biological target: His6-tagged recombinant NOD1 CARD (residues 15-110) A55V (human) (UniProt Q9Y239); experiment: as above
[7] = biological target: His6-tagged recombinant NOD1 CARD (residues 15-110) E56K (human) (UniProt Q9Y239); experiment: as above

B1: His6-tagged recombinant NOD1 CARD (residues 15-110), wild type (domain or fragment, human, UniProt Q9Y239-1 15-110, looked up)
chain: ESHPHIQLLKSNRELLVTHIRNTQCLVDNLLKNDYFSAEDAEIVCACPTQPDKVRKILDLVQSKGEEVSEFFLYLLQQLADAYVDLRPWLLEIGFS
notes: NOD1 CARD domain, human, residues 15-110; the dimer is stabilised by an interprotomer disulfide bond through Cys-39 (from the cited crystal structures); also called wild-type NOD1 CARD; wild-type NOD1
For B1, the binding [1] was “no binding (condition: with 2 mM DTT)”.

B2: His6-tagged recombinant NOD1 CARD (residues 15-110) C39S (domain or fragment, UniProt Q9Y239-1 15-110)
chain: ESHPHIQLLKSNRELLVTHIRNTQSLVDNLLKNDYFSAEDAEIVCACPTQPDKVRKILDLVQSKGEEVSEFFLYLLQQLADAYVDLRPWLLEIGFS
B2 was tested, and the binding [2] was “no binding” and the binding [3] was “no binding”.

B3: His6-tagged recombinant NOD1 CARD (residues 15-110) D48K (domain or fragment, human, UniProt Q9Y239-1 15-110, looked up)
chain: ESHPHIQLLKSNRELLVTHIRNTQCLVDNLLKNKYFSAEDAEIVCACPTQPDKVRKILDLVQSKGEEVSEFFLYLLQQLADAYVDLRPWLLEIGFS
notes: NOD1 CARD domain, human, residues 15-110, D48K
B3 was tested, and the binding [4] was “no binding (condition: with 2 mM DTT)”.

B4: His6-tagged recombinant NOD1 CARD (residues 15-110) E53K (domain or fragment, human, UniProt Q9Y239-1 15-110, looked up)
chain: ESHPHIQLLKSNRELLVTHIRNTQCLVDNLLKNDYFSAKDAEIVCACPTQPDKVRKILDLVQSKGEEVSEFFLYLLQQLADAYVDLRPWLLEIGFS
notes: NOD1 CARD domain, human, residues 15-110, E53K
For B4, the binding [5] was “no binding (condition: with 2 mM DTT)”.

B5: His6-tagged recombinant NOD1 CARD (residues 15-110) A55V (domain or fragment, human, UniProt Q9Y239-1 15-110, looked up)
chain: ESHPHIQLLKSNRELLVTHIRNTQCLVDNLLKNDYFSAEDVEIVCACPTQPDKVRKILDLVQSKGEEVSEFFLYLLQQLADAYVDLRPWLLEIGFS
notes: NOD1 CARD domain, human, residues 15-110, A55V (a polymorphism)
For B5, the binding [6] was “no binding (condition: with 2 mM DTT)”.

B6: His6-tagged recombinant NOD1 CARD (residues 15-110) E56K (domain or fragment, human, UniProt Q9Y239-1 15-110, looked up)
chain: ESHPHIQLLKSNRELLVTHIRNTQCLVDNLLKNDYFSAEDAKIVCACPTQPDKVRKILDLVQSKGEEVSEFFLYLLQQLADAYVDLRPWLLEIGFS
notes: NOD1 CARD domain, human, residues 15-110, E56K
For B6, the binding [7] was “no binding (condition: with 2 mM DTT)”.
